# Primary screen of a compound library

Measurements from “University of Dundee, Small-Polar-MMV Screening Library” (2021), ChEMBL document CHEMBL3988442.

Each number is a percent effect as filed. The record does not define 0% and 100%; most values in the screen are far below 50% and negative numbers occur (in some assays of this library far below -100). Compounds were drawn at random from those tested, without regard to their results. Two or more numbers in one place are separate tests of the same structure; such repeats can differ widely.

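Growth of Mycobacterium tuberculosis over 3 days (7H9 medium with glucose and tyloxapol); the read-out is not stated. Tested at 50 µM. The record gives no direction; compounds that gave an IC50 in retests scored well above the rest, so higher reads as more growth inhibition. Of about 69,000 compounds tested this way, about 760 (1.1%) reached 50% or more in at least one test.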

* Cn1cc(C[C@H]2[C@@H](O)CCN2C(=O)C2CC=CC2)cn1 : -26.07%
* CC(=O)NCCCNC(=O)N(C)C(C)Cc1ccc(Cl)cc1 (stereo not drawn) : -3.177%
* O=C(O)C(F)(F)F.O=S(=O)(c1cccs1)N1CC[C@@H](O)[C@@H]1Cc1ccncc1 : -9.869%
* CCC(C)(O)CNC(=O)Nc1ccc(C)cc1Br (stereo not drawn) : 23.78% & 4.502%
* CSc1ccc(-c2noc(CN(CC(C)C)CC(C)C)n2)cc1 : 9.235% & 4.146%
* Cc1cnn(C2CCCN(C(=O)c3ccc(-n4cccn4)nc3)C2)c1 (stereo not drawn) : 47.82%
* COCCN(C)CCN1CC2(CCN(C3CCCCC3)CC2)OC1=O : 9.716%
* CCN(Cc1nc(Cc2ccccc2)no1)C1CC1 : 37.05%
* Cc1n[nH]c(C)c1C1COCCN1C(=O)c1cc(Cl)c[nH]1 (stereo not drawn) : -19.19%
* CN(C)C(=O)CN1CCCC(c2nccnc2-c2cccc(Cl)c2)C1 (stereo not drawn) : 22.76%
* O=C(O)C(F)(F)F.c1cc(-c2ccc3c(c2)CCC32CCN(c3nncs3)CC2)ccn1 : -8.736%
* Oc1cccc(CN2CCN(c3nccc(CCC(F)(F)F)n3)CC2)c1 : -16.75%
* Cc1cc(C)n(CC2CN(Cc3cccc(C(N)=O)c3)CCO2)n1 (stereo not drawn) : -5.91%
* COc1ccccc1N1CCC(CNCc2cccc(O)c2)C1 (stereo not drawn) : 35.5%
* CC(C)[C@@H]1CN(Cc2ccccc2C#N)C[C@H]1N(C)C : -33.58%
* COCC1(CNc2cc(C(C)C)nc(N)n2)CC1 : -3.898%
* Cc1c(C2CCOC(C)(C)C2)nc(N)c(C#N)c1-c1ccc(O)cc1 (stereo not drawn) : -16.98%
* COc1ccc(F)cc1CN1CCC(O)(CN2CCCCC2)C1 (stereo not drawn) : 8.756%
* [H][C@]12CCC[C@@]1(COC)CN(C(=O)N1CCCC1)C2 : 26.93%
* CC(C)NC(=O)[C@@H]1C[C@H](N)CN1C(=O)c1cc2ccccc2[nH]c1=O : -5.119% & 3.844%
* CNC(=O)C1CCCCN1C(=O)C1CCN(S(C)(=O)=O)CC1 (stereo not drawn) : 8.778%
* NC(=O)C1CCCN1Cc1ccccc1NC(=O)CC(F)(F)F (stereo not drawn) : -3.927%
* O=C(NC[C@H]1OC[C@@H](NC(=O)C2CCCC2)[C@@H]1O)c1ccncc1 : -9.036% & -31.77%
* CC(C)c1nnc2sc(CC3CCS(=O)(=O)CC3)nn12 : 1.834%
* [H][C@@]12CNC(=O)[C@H](C)[C@]1([H])CN(Cc1cc(OC)cc(OC)c1)C2 : -15.72%
* COc1cccc2c1OCC(CNC(=O)Cn1ccnc1C)C2 (stereo not drawn) : -30.96% & -4.55%
* O=C(O)C(F)(F)F.O=C(O)C(F)(F)F.[H][C@@]12CCC(=O)N(Cc3cccc(C)n3)[C@]1([H])CCN2Cc1ccc(F)cc1 : 28.44%
* O=C(NCC1CCOC1)c1cc(-c2ccc(F)cc2)[nH]n1 (stereo not drawn) : 8.814% & 11.59%
* [H][C@@]12CS(=O)(=O)C[C@]1([H])N(C(=O)NCC)CCN2Cc1nc2ccccc2[nH]1 : -2.099%
* C=C(C)Cn1nnc(C2(NC(=O)c3ccccc3)CCCC2)n1 : -14.19%
* COC(=O)c1cc2c(=O)n(C3CC3)ccc2nc1C : -43.59%
* [H][C@@]12CCCO[C@]1([H])[C@H](NC(=O)CC1CC1)CN(C(=O)c1ccsc1)C2 : 0.9707%
* O=C(O)C(F)(F)F.[H][C@@]12CN(Cc3ccc(OC)cc3)C[C@]1([H])OCCN2C : 23.43%
* Cc1ncsc1CCNC(=O)Cn1nc(C)n(Cc2ccccc2)c1=O : -22.96%
* CCN(CCO)C(=O)Nc1ccc(OCCOC)nc1 : -33.74%
* Fc1cccnc1Oc1cc(F)c(CN2CCCC2)c(Cl)c1 : -33.35%
* COc1ccc(-c2nc(CSC3CCCCNC3=O)co2)cc1 (stereo not drawn) : 14.11%
* [H][C@@]12CN(Cc3ccccn3)C[C@]1([H])N(CCCc1ccc(F)cc1)C(=O)O2 : -2.766%
* CN(C)c1cc(C(=O)N2CCN(c3cnccn3)CC2)ccn1 : -4.506%
* Cn1ccc(C2CCCCCN2C(=O)c2cccnc2)n1 (stereo not drawn) : -11.94%
* CSc1nccc(N2CCC(NCc3ccc4nsnc4c3)CC2)n1 : 12.96%
* Cc1ccc(CCN2CCC(N(C)Cc3noc(C4CC4)n3)C2)cc1 (stereo not drawn) : 10.9%
* Cc1cc(CS(=O)(=O)N(C)C(C)c2ccc(Cl)cc2)on1 (stereo not drawn) : 18.79% & 9.233%

Repeated from the top, 5 entries:

- Cn1cc(C[C@H]2[C@@H](O)CCN2C(=O)C2CC=CC2)cn1 : -26.07%
- CC(=O)NCCCNC(=O)N(C)C(C)Cc1ccc(Cl)cc1 (stereo not drawn) : -3.177%
- O=C(O)C(F)(F)F.O=S(=O)(c1cccs1)N1CC[C@@H](O)[C@@H]1Cc1ccncc1 : -9.869%
- CCC(C)(O)CNC(=O)Nc1ccc(C)cc1Br (stereo not drawn) : 23.78% & 4.502%
- CSc1ccc(-c2noc(CN(CC(C)C)CC(C)C)n2)cc1 : 9.235% & 4.146%